In article PMC4014126 (2014):
Numbering of substitutions follows the chain as printed. No constants are given. Whether binding was seen depends on the method and setting. In cells and extracts the contact can be indirect. Some entries that bind do so weakly or less than the wild type. Sequences can lack the tags named with a protein.

Key:
Assay in all cases: co-IP; IL-17RA-deficient MEFs reconstituted by retroviral infection with Myc-tagged mouse IL-17RA or its mutants, treated with IL-17 for 10 min; cell extracts incubated overnight with anti-Myc antibody (1 µg) and protein A beads, washed four times with lysis buffer; Western blot for Act1
[1] = molecular target: T1, Myc-tagged mouse IL-17RA mutant M2 (I460A/L461A) (mouse) (UniProt Q60943)
T1 sequence: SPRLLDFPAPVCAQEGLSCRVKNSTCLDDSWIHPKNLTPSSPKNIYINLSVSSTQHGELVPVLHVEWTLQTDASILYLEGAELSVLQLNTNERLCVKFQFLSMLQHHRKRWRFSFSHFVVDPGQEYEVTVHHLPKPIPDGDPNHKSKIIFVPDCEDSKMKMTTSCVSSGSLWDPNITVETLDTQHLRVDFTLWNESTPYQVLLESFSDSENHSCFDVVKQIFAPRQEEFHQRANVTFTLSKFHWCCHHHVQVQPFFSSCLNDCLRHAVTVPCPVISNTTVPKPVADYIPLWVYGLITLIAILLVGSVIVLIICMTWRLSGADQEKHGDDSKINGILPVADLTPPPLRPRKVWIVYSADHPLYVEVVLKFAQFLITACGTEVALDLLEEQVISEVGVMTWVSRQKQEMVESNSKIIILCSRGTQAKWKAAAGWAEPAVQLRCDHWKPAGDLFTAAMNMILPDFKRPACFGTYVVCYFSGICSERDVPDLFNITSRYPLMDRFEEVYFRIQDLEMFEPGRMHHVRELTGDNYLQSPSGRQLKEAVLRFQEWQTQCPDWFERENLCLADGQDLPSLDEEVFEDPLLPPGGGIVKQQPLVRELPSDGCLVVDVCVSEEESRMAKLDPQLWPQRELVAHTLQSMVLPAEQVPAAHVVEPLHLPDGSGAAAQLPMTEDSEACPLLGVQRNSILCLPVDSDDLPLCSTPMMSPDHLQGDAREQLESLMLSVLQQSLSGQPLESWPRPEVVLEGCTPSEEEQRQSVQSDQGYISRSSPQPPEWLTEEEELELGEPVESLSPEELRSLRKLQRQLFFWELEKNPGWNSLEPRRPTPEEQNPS

[2] = molecular target: T2, Myc-tagged mouse IL-17RA (mouse) (UniProt Q60943)
T2 sequence: T1 sequence with A429I, A430L

[3] = molecular target: T3, Myc-tagged mouse IL-17RA mutant M5 (V427A/M428A) (mouse) (UniProt Q60943)
T3 sequence: T1 sequence with V396A, M397A, A429I, A430L

[4] = molecular target: T4, Myc-tagged mouse IL-17RA mutant M4 (E419A/Q420A/E424A) (mouse) (UniProt Q60943)
T4 sequence: T1 sequence with E388A, Q389A, E393A, A429I, A430L

[5] = molecular target: T5, Myc-tagged mouse IL-17RA mutant M3 (R451A/Q454A/K458A) (mouse) (UniProt Q60943)
T5 sequence: T1 sequence with R420A, Q423A, K427A, A429I, A430L

Measured: binding

B1: NF-κB activator 1 (Act1) (protein, UniProt Q8N7N6 1-555)
chain: MNRSIPVEVDESEPFPSQLLKPIPEYSPEEELEPPAPNTRNMAPSSLSVLQCPPLKLANHQPVSQQVTCLRAKVLEEGEASFFRRHPELGKDISSCSSGASEPESELGALPPEHRFTLTEKRNRWLGSQLSAASPDTGHESDKSDPSLPNALADSFSGGQEMMPRPRPRPGPHRHRAAPDVPTIDTGYDSQPQDVLGIRQLERPLPLTSSCYLQDLPGPLRSRELPPQFELERYPMNAQLLPPHPSPQAPWNCQYYCPGGPYHHQVPHGHGYPPAAAYQQVLQPALPGQVLPGARARGPRPVQKVILNDSSPQDQEERPAQRDFSFPRLPRDQLYRPPSNGVEAPEESLDLPAELRPHGPQAPSLAAVPRPPSNPLARGTLRTSNLPEELRKVFITYSMDTAMEVVKFVNFLLVNGFQTAIDIFEDRIRGIDIIKWMERYLRDKTVMIIVAISPKYKQDVEGAESQLDEDEHGLHTKYIHRMMQIEFISQGSMNFRFIPVLFPNAKKEHVPTWLQNTHVYSWPKNKKNILLRLLREEEYVAPPRGPLPTLQVVPL
binds: all assays above
